{"source": "PubChem BioAssay AID504808 | Drosophila RNAi Screening Center, 2011", "assay": "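Genes whose loss lifts activity of an E2F-responsive reporter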 (primary screen)", "cells": "Drosophila S2 cells", "reagent": "long dsRNA against Drosophila genes", "read-out": "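Dual luciferase plate measurements; E2F-specific signal taken as firefly over Renilla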", "scale": "E2F firefly: higher = more E2F reporter activity; Renilla normaliser: higher = more normaliser reporter signal", "rule for the call": "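Called active if the normalised E2F reporter went up by over 50%; the cutoff is arbitrary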", "note": "In all, the deposit lists about 21,000 reagents; shown is an unselected part of those with a known target gene and a result. In the full data, 18 (0.084%) were called active. 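Raw counts without plate normalisation, one of two replicates; the ratio scores behind the calls were not deposited.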 Entries without a mark were called inactive. Not stated in the record: the amount of reagent, the time to read-out."}
{"predicted target": "c12.2", "dsRNA": "DRSC18751", "E2F firefly, rep 1": 1.09e5, "Renilla normaliser, rep 1": 6422}
{"predicted target": "CG31955", "dsRNA": "DRSC00285", "E2F firefly, rep 1": 1.45e5, "Renilla normaliser, rep 1": 4659}
{"predicted target": "Lamtor5 (Late endosomal/lysosomal adaptor, MAPK and MTOR activator 5)", "dsRNA": "DRSC18491", "E2F firefly, rep 1": 1.34e5, "Renilla normaliser, rep 1": 6596}
{"predicted target": "CG15127", "dsRNA": "DRSC05802", "E2F firefly, rep 1": 1.71e5, "Renilla normaliser, rep 1": 7403}
{"predicted target": "CG15127", "dsRNA": "DRSC06549", "E2F firefly, rep 1": 1.50e5, "Renilla normaliser, rep 1": 4899}
{"predicted target": "Wee1 (Wee1 kinase)", "dsRNA": "DRSC03635", "E2F firefly, rep 1": 1.54e5, "Renilla normaliser, rep 1": 4879}
{"predicted target": "CG11929", "dsRNA": "DRSC00339", "E2F firefly, rep 1": 1.53e5, "Renilla normaliser, rep 1": 6255}
{"predicted target": "Rab10", "dsRNA": "DRSC20572", "E2F firefly, rep 1": 1.37e5, "Renilla normaliser, rep 1": 6312}
{"predicted target": "NtR", "dsRNA": "DRSC04628", "E2F firefly, rep 1": 1.05e5, "Renilla normaliser, rep 1": 4398}
{"predicted target": "Obp85a (Odorant-binding protein 85a)", "dsRNA": "DRSC14362", "E2F firefly, rep 1": 1.42e5, "Renilla normaliser, rep 1": 6964}
{"predicted target": "CG5282", "dsRNA": "DRSC11775", "E2F firefly, rep 1": 72381, "Renilla normaliser, rep 1": 3741}
{"predicted target": "CG17321", "dsRNA": "DRSC02598", "E2F firefly, rep 1": 1.11e5, "Renilla normaliser, rep 1": 5355}
{"predicted target": "CG11598", "dsRNA": "DRSC14331", "E2F firefly, rep 1": 1.46e5, "Renilla normaliser, rep 1": 6186}
{"predicted target": "Trf4 (TBP-related factor 4)", "dsRNA": "DRSC00729", "E2F firefly, rep 1": 1.65e5, "Renilla normaliser, rep 1": 5719}
{"predicted target": "Galphaq (G protein alpha subunit q)", "dsRNA": "DRSC07432", "E2F firefly, rep 1": 3255, "Renilla normaliser, rep 1": 222}
{"predicted target": "CG32461", "dsRNA": "DRSC11594", "E2F firefly, rep 1": 92386, "Renilla normaliser, rep 1": 3602}
{"predicted target": "CG10098", "dsRNA": "DRSC12509", "E2F firefly, rep 1": 64220, "Renilla normaliser, rep 1": 2960}
{"predicted target": "Cog7 (Component of oligomeric golgi complex 7)", "dsRNA": "DRSC16331", "E2F firefly, rep 1": 1.13e5, "Renilla normaliser, rep 1": 6647}
{"predicted target": "CG8289", "dsRNA": "DRSC20101", "E2F firefly, rep 1": 1.53e5, "Renilla normaliser, rep 1": 5214}
{"predicted target": "CG32280", "dsRNA": "DRSC08024", "E2F firefly, rep 1": 1.24e5, "Renilla normaliser, rep 1": 4348}
{"predicted target": "mRpS34 (mitochondrial ribosomal protein S34)", "dsRNA": "DRSC09918", "E2F firefly, rep 1": 1.84e5, "Renilla normaliser, rep 1": 7932}
{"predicted target": "rad (retired record)", "dsRNA": "DRSC19687", "E2F firefly, rep 1": 1.46e5, "Renilla normaliser, rep 1": 6297}
{"predicted target": "rha", "dsRNA": "DRSC17044", "E2F firefly, rep 1": 1792, "Renilla normaliser, rep 1": 952}
{"predicted target": "Ssl1 (Suppressor of stem-loop mutation)", "dsRNA": "DRSC11634", "E2F firefly, rep 1": 77707, "Renilla normaliser, rep 1": 3235}
{"predicted target": "verm (vermiform)", "dsRNA": "DRSC11038", "E2F firefly, rep 1": 76565, "Renilla normaliser, rep 1": 3817}
{"predicted target": "Mapmodulin", "dsRNA": "DRSC06956", "E2F firefly, rep 1": 71149, "Renilla normaliser, rep 1": 3498}
{"predicted target": "Or23a (Odorant receptor 23a)", "dsRNA": "DRSC00767", "E2F firefly, rep 1": 1.74e5, "Renilla normaliser, rep 1": 6042}
{"predicted target": "Pde6 (Phosphodiesterase 6)", "dsRNA": "DRSC16401", "E2F firefly, rep 1": 74020, "Renilla normaliser, rep 1": 3387}
{"predicted target": "Pde6 (Phosphodiesterase 6)", "dsRNA": "DRSC16402", "E2F firefly, rep 1": 1.17e5, "Renilla normaliser, rep 1": 5757}
{"predicted target": "Pde6 (Phosphodiesterase 6)", "dsRNA": "DRSC16403", "E2F firefly, rep 1": 1.27e5, "Renilla normaliser, rep 1": 5350}

2 of these entries in another layout:
predicted target	dsRNA	E2F firefly, rep 1	Renilla normaliser, rep 1
rad (retired record)	DRSC19687	1.46e5	6297
rha	DRSC17044	1792	952
